# Measurements from PubChem BioAssay AID493014 (National Center for Advancing Translational Sciences (NCATS), 2011).
# Among all 340,000 compounds or so, about 170 (0.05%) were called active. The inconclusive results got no clear call from the source; some entries with a clear call stand among them for comparison. The call rests on the fitted dose curve; in most records, active means well fitted inhibition curve with a large enough effect in the signal ratio, with a control signal flat (not every such curve was filed as active); inconclusive means small, poorly fitted or top-dose-only effect, or effect the other way, or a change in a side signal; inactive means flat fitted curve, though single readings scatter; the % refers to the signal ratio. Where the call is inconclusive, the potency comes from a doubtful curve fit.
# Test: qHTS Assay to Find Inhibitors of Chronic Active B-Cell Receptor Signaling;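 on activity change, negative = inhibition: plate controls were basal doxycycline-induced cells for no effect and cells given 10 µM MG132 for full effect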
# Conditions: ABC-DLBCL IkBa-CBG/CBR reporter, luminescence ratio (green luciferase fused to IkBa over red control in TMD8 lymphoma cells), 4 h; activity change, negative = inhibition: at 46.1 µM (top of the series)
# How it was run: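 Compounds up to 46 uM were incubated four hours with TMD8 cells whose green CBG68 luciferase is fused to IkappaBalpha; red CBR luminescence normalised the signal, and concentration-effect curves were fitted to fusion, red and ratio data.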
# Potency means the concentration at half of the fitted maximal effect.
Structure (SMILES),"activity change, negative = inhibition",Potency
COc1ccc2c(c1)CC/C(=C\c1ccc(C)o1)C2=O,inconclusive: 10.6%,
O=C(NCc1nc2ccccc2[nH]1)C1=C[C@@H](c2ccc(Br)cc2)C[C@@H](OCc2ccc(CO)cc2)O1,,"inconclusive: 5.62 µM [falling, full curve, poor fit]"
CCN(CC)c1ccc(N=Cc2ccc(N(CC)CC)cc2O)cc1,inactive: 3.25%,
O=C(c1cnc(Cl)c(Cl)c1)N1CCC(Cc2ccccc2)CC1,inactive: 2.74%,
O=C(NCc1ccco1)c1ccccc1Nc1ccc(F)cc1,inconclusive: 20.5%,
O=C(NC1CCCCCC1)c1cc2ccccc2oc1=O,,"inconclusive: 0.708 µM [falling, partial curve, poor fit]"
CCNC(=O)c1c(NC(C)=O)sc2c1CCCC2,inactive: 6.67%,
CCOC(=O)c1sc(NC(=O)CSc2nnnn2-c2ccc(C)c(C)c2)nc1C,inactive: -2.17%,
Nc1ccccc1-c1nc2ccccc2s1,inconclusive: 11.8%,
CCOCCn1c(SCc2cccc(C)c2)nc2c1c(=O)[nH]c(=O)n2C,inconclusive: 2.01%,
C=CC[C@@H](CC(=O)N[C@@H](CO)Cc1ccccc1)C(=O)NC[C@@H](OC(=O)[C@@H](CC=C)CC(=O)OC(C)(C)C)c1ccccc1,inconclusive: 4.1%,
CC[C@]12c3[nH]c4cc(-c5ccco5)ccc4c3CCN1C(=O)[C@@H](CC(=O)NC/C=C(\C)CCC=C(C)C)C[C@@H]2C(=O)N1CCN(C(=O)c2ccco2)CC1,,"inconclusive: 18.4 µM [falling, partial curve, poor fit]"
COc1cccc(Nc2nnc(SCN3C(=O)c4ccccc4C3=O)s2)c1,inconclusive: 11.2%,
Cc1cccc(N2CCN(S(=O)(=O)c3ccc(-c4ccc(=O)[nH]n4)o3)CC2)c1C,inactive: -1.28%,
Cc1cc(C)c2c(c1)c1nnc(SCCN3CCCCC3)nc1n2C,inconclusive: 11.8%,
COc1ccc([C@H]2CC(=O)C=C(c3cc(Br)ccc3OC)C2)cc1,inactive: -0.143%,
O=c1c2ccccc2nc(-c2ccc(Cl)cc2Cl)n1CCCn1ccnc1,inconclusive: 4.13%,
CCCCc1ccc(NC(=S)NCc2ccc(OC)cc2)cc1,inconclusive: -21.1%,
COc1ccc(CNC(=O)CCCOc2cc(=O)n(C)c3ccccc23)cc1,,"inconclusive: 25.9 µM [falling, partial curve, poor fit]"
COc1ccc(C(=O)Nc2nnc(Cc3ccccc3)s2)c(OC)c1,inconclusive: 5.07%,
CCOC(=O)C1(CC2CC2)CCN(Cc2cn(C)c3ccccc23)CC1,,"inconclusive: 14.1 µM [falling, single point]"
O=C(OCN1C(=O)C(=O)c2ccccc21)c1ccc(Cl)cc1,inactive: 7.94%,
O=C(Nc1cccc(-c2nc3ccccc3s2)c1)c1cc(-n2cnnc2)ccc1Cl,inconclusive: -4.18%,
COc1ccc2c(Cn3cnc4cc([N+](=O)[O-])ccc4c3=O)cc(=O)oc2c1,,"inconclusive: 14.1 µM [falling, single point]"
CCNC(=S)Nc1ccc(OC(F)(F)F)cc1,inconclusive: 1.01%,
COc1ccc(-n2nc([N+](=O)[O-])c(=NCc3ccco3)n2O)cc1,inactive: -0.203%,
COc1cc(C(=O)Nc2cccc(-c3nnc(-c4ccco4)o3)c2)ccc1OC(C)=O,inconclusive: 0.297%,

Structure (SMILES),"activity change, negative = inhibition",Potency
COc1ccc(NC2=CC(c3ccc(F)cc3)N(c3ccc(OC)cc3)C2=O)cc1 (centres undefined),inactive: 5.34%,
O=C(NNC(=O)c1c(O)c2ccccc2[nH]c1=O)c1ccccc1Br,,"inconclusive: 7.94 µM [falling, partial curve]"
CCN(C(=O)COC(=O)/C(C#N)=C/c1ccc(N(C)C)cc1)C1CCS(=O)(=O)C1 (centres undefined),inconclusive: 9.66%,
CC(=O)CCc1c(C)[nH]c2ccc(NC(C)=O)cc2c1=O,inactive: 3.14%,
CCOC(=O)c1c(-c2ccccc2)oc2ccc(O)c(CN3CCN(C)CC3)c12,,"inconclusive: 32.6 µM [falling, partial curve, poor fit]"
COc1ccc(NC(=O)CCS(=O)(=O)c2ccccc2)c(OC)c1,,"inconclusive: 18.4 µM [falling, partial curve, poor fit]"
CC(NC(=O)COc1ccc(Br)cc1)C1CCCO1 (centres undefined),inconclusive: 5.46%,
N#Cc1c(Cl)cccc1N1CCCC1,,"inconclusive: 12.6 µM [falling, partial curve, poor fit]"
COC(=O)c1ccc2nc(-c3cccc(N)c3)cn2c1,inconclusive: 3.71%,
CN(C(=O)c1cccc(NC(=O)C2CCCN(C(=O)OC(C)(C)C)C2)c1)C1CCCC1 (centres undefined),inconclusive: -2.36%,
Clc1cnc(N/N=C/c2cccs2)c(Cl)c1,,"inconclusive: 20 µM [falling, partial curve]"
O=c1[nH]c(=O)n(Cc2ccco2)c2c1C(C(F)(F)F)(C(F)(F)F)N=C(c1ccco1)N2,inconclusive: -0.594%,
CCOc1ccc(-n2ccnc2SCC(=O)N2CCCc3ccccc32)cc1,inactive: -1.05%,
COc1ccccc1Nc1nc(NCCO)nc(N)c1[N+](=O)[O-],inconclusive: 7.94%,
Cn1c(=O)c2c(ncn2CC(=O)N/N=C/C(Br)=C/c2ccccc2)n(C)c1=O,inactive: -14.5%,
CCn1c(N)nc2ccccc21,inconclusive: 10.2%,
Cc1ccc(C)c(-c2cc(C(=O)NNC(=S)NCC(C)C)c3ccccc3n2)c1,inactive: 22.9%,
C#CCOCCOCCOCCNc1nc(N2CCN(C(=O)[C@H](C(C)C)n3cc(CCO)nn3)CC2)nc(N2CCN(C(=O)[C@H]([C@@H](C)CC)n3cc(CCCCN)nn3)CC2)n1,inactive: -0.4%,
Cc1c(Cl)cccc1Nc1nc(N)nc(CN2CCCCCC2)n1,,"inconclusive: 32.6 µM [falling, single point]"
CCOC(=O)c1sc(Nc2nc3cc4c(cc3s2)OCO4)cc1C,inactive: 4.03%,
Cc1ccc2c(c1)/C(=C/c1ccccc1F)C(=O)N2,inconclusive: -22.4%,
Cc1ccc(-c2csc(NC(=O)CSc3nc(C)cc(=O)[nH]3)n2)cc1,,"inconclusive: 29.1 µM [rising, single point]"
CCOc1ccc(C(=O)OCC(=O)N2CCOCC2)cc1OCC,inactive: -3.11%,
Cc1ccc(C2CC(=O)NC(SCC(=O)OCc3ccccc3)=C2C#N)o1 (centres undefined),,"inconclusive: 20.6 µM [falling, single point]"
O=C(Cn1cc([N+](=O)[O-])cn1)Nc1ccn(Cc2c(F)c(F)cc(F)c2F)n1,inconclusive: 18.4%,
CCOC(=O)Cn1cnc2c(nnn2-c2cccc(OC)c2)c1=O,inconclusive: 0.887%,
Cc1cccn2cc(-c3ccc(S(=O)(=O)N4CCOCC4)cc3)nc12,inconclusive: 11.9%,

Structure (SMILES),"activity change, negative = inhibition",Potency
O=C(Nc1ccc(N2CCOCC2)cc1)C1CCCCN1S(=O)(=O)c1ccccc1 (centres undefined),inconclusive: -5.44%,
CCc1nnc2n1N=C(c1ccccc1)CS2,inconclusive: -13.2%,
O=S(=O)(c1ccccc1)[C@@]1(c2ccc(Br)cc2)C[C@@H]2ON=C(c3cccc(Br)c3)[C@@H]2C1,inactive: 0.681%,
Cn1c(=NC(=O)CCl)sc2ccccc21,,"inconclusive: 12.6 µM [falling, partial curve]"
CCC(C)C(NC(N)=O)C(=O)Nc1ccc(OCc2ccccc2)cc1 (centres undefined),inconclusive: -25.6%,
COc1ccc(S(=O)(=O)Nc2ccc(S(=O)(=O)N(C)C)cc2)cc1[N+](=O)[O-],inconclusive: -1.5%,
CCN(CC)c1ccc(C(=S)N2CCN(c3ccccc3)CC2)cc1,inactive: -0.0502%,
Cc1ccc(S(=O)(=O)N2CCCCC2)cc1NC(=O)Nc1ccc(Cl)cc1Cl,inactive: 3.25%,
O=C(CN1CCOCC1)NNc1c2ccccc2nc2ccccc12,inconclusive: 16.3%,
Cc1ccccc1NC(=O)c1cccc(NC(=O)c2ccco2)c1,,"inconclusive: 12.6 µM [falling, single point]"
O=C(CSc1ccccc1F)NC(=O)c1ccccc1Br,inactive: 4.29%,
Cc1nc(C)c(C(=O)N/N=C/c2cc(Br)ccc2O)s1,inconclusive: -9.31%,
Cn1ccc(C(=O)NC(=S)Nc2ccc([N+](=O)[O-])cc2O)n1,,"inconclusive: 35.5 µM [rising, single point]"
Cc1ccc(O)c(N/C=C/C(=O)c2ccc(F)cc2)c1,,"inconclusive: 31.6 µM [falling, single point]"
CC(C)c1ccc(/C=N/NC(=O)c2ccccn2)cc1,,"inconclusive: 35.5 µM [rising, single point]"
CC1=CC(=O)C(C(C)C)=C/C1=N/OS(=O)(=O)c1ccccc1,inconclusive: 27.5%,
O=[N+]([O-])c1cc(/C=N/Nc2nc(N3CCCCC3)nc(N3CCCCC3)n2)ccc1O,inconclusive: 6.17%,
CC(=O)N(C)c1ccc(NC(=O)C(Sc2ccccc2)c2ccccc2)cc1 (centres undefined),inconclusive: -0.681%,
CSc1ccc(/C=C/C(=O)OCC(=O)NC2CCS(=O)(=O)C2)cc1 (centres undefined),inconclusive: 3.37%,
COc1nc(NCCN2CCOCC2)nc(Nc2ccc([N+](=O)[O-])cc2)n1,,"inconclusive: 29.1 µM [falling, single point]"
Cc1ccc(C2=NN(CC(=O)NCCc3ccccc3)C(=O)CC2)cc1,inconclusive: -1.12%,
CC(CCc1ccccc1)NC(=O)C(=O)c1c[nH]c2ccccc12 (centres undefined),,"inconclusive: 7.94 µM [falling, partial curve]"
CC(C)(C)NCCOCCOc1ccccc1-c1ccccc1,inconclusive: -0.258%,
Cc1ccc([C@@H]2[C@@H]3C(=O)N(C)C(=O)[C@@H]3[C@]3(Cc4ccccc4)C(=O)N(Cc4ccccn4)CC(=O)N23)o1,inactive: 4.93%,
CCCOC(=O)C1C2C=CC(C2)C1C(=O)OCC(=O)c1ccccc1 (centres undefined),inconclusive: 21%,

# Laid out differently: results already given
Structure (SMILES) | activity change, negative = inhibition | Potency
O=C(Nc1ccc(N2CCOCC2)cc1)C1CCCCN1S(=O)(=O)c1ccccc1 (centres undefined) | inconclusive: -5.44% | 
CCc1nnc2n1N=C(c1ccccc1)CS2 | inconclusive: -13.2% | 
O=S(=O)(c1ccccc1)[C@@]1(c2ccc(Br)cc2)C[C@@H]2ON=C(c3cccc(Br)c3)[C@@H]2C1 | inactive: 0.681% | 
Cn1c(=NC(=O)CCl)sc2ccccc21 |  | inconclusive: 12.6 µM [falling, partial curve]
CCC(C)C(NC(N)=O)C(=O)Nc1ccc(OCc2ccccc2)cc1 (centres undefined) | inconclusive: -25.6% | 
